Test results from patent publication US6703020B1 (Board of Regents, The University of Texas System, priority 1999, dated 2004).
Some results were stated once for a whole list of compounds, not compound by compound.

Tested on: VEGF-induced permeability
Test: Miles permeability assay
Assay type: in vivo, guinea pig
Conditions: guinea pigs, intradermal

Substance: 2C3: anti-VEGF monoclonal antibody, IgG2a k, hybridoma ATCC PTA 1595; blocks VEGF binding to VEGFR2 but not VEGFR1 [Clone 2C3]
- molar excess of IgG over VEGF inhibiting VEGF-induced permeability: ≥ 10 fold
